Residue numbers refer to the chain shown, from its start. No constants are given. Whether binding was seen depends on the method and setting. Some binding calls cover weakened binding; strength is not graded here. Tags and fused reporters may be left off the sequences shown.
B1: TXP1 (VNAR-txp1 fused to the N-terminus of human IgG1 Fc with attenuated effector function) (Fc fusion, not shown: a dimerising Fc or GST; small tags and cut ends)
VNAR: ARVDQTPQTITKETGESLTINCVLRDSNCALSSTYWYRKKSGSTNEENISKGGRYVETVNSGSKSFSLKINDLTVEDSGTYRCNVVGTWCMSWRDVYGGGTAVTVNA
B2: TXP1D1 (deimmunized variant VNAR-r2d1 fused to human IgG1 Fc) (Fc fusion, not shown: a dimerising Fc or GST; small tags and cut ends)
VNAR: B1 VNAR with I10A, N60D, S63T, Y97S, G99D, A102V
B3: TXP1D4 (deimmunized variant VNAR-r2d4 fused to human IgG1 Fc) (Fc fusion, not shown: a dimerising Fc or GST; small tags and cut ends)
VNAR: ARVDQTPQTATKETGESLTINCVLRDSNCALSSTYWYRKKSGSTNEENISKGGRKYVETVESGSKSFSLKINDLTVEDSGTYRCNVVGTWCMSWRDVSGDGTVVTVNA

By UniProt entry, the sequences of proteins in these tests, tags left out. Residues count along the entry.
UniProt P02768, residues 25-609: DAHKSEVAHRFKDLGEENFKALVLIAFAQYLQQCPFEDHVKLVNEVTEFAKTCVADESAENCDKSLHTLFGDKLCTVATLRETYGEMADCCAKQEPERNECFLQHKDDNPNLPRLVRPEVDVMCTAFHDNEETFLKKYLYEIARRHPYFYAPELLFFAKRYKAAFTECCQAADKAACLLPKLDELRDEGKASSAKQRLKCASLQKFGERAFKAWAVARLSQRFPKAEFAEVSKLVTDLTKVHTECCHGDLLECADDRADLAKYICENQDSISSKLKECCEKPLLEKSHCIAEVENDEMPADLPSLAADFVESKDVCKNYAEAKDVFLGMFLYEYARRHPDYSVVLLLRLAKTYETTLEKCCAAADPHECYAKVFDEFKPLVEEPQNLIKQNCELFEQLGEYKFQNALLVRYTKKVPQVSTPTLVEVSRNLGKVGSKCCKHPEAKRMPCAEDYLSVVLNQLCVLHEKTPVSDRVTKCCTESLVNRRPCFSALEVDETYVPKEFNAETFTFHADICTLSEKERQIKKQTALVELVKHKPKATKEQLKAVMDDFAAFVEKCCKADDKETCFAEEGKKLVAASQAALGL

Assays:
[1] = biological target: recombinant cynomolgus TfR-1 (cynomolgus); assay: summary of ELISA and SPR
[2] = biological target: recombinant cynomolgus TfR-1 (cynomolgus); assay: ELISA, plate-coated recombinant TfR-1
[3] = biological target: recombinant cynomolgus TfR-1 (cynomolgus); assay: ELISA, plate coated with recombinant cynomolgus TfR-1, detection with anti-hFc HRP and TMB
[4] = biological target: cynomolgus TfR-1 on reticulocytes (cynomolgus); assay: flow cytometry of blood from cynomolgus macaques 24 hr after TXP1 at 1.35 mg/kg, anti-hFc Alexa-647
[5] = biological target: recombinant cynomolgus TfR-1 (cynomolgus); assay: ELISA, plate-coated human or cynomolgus TfR-1 (FIG. 15)
HSA (human) = HSA (human) (UniProt P02768); assay: ELISA, plate coated with HSA (negative control), detection with anti-hFc HRP and TMB

Binder | binding [1] | binding [2] | binding [3] | binding [4] | binding [5] | binding (HSA (human))
B1 | binds | binds | binds | binds |  | 
B2 |  |  |  |  | binds | no binding (tested: about 4e-6 M)
B3 |  |  |  |  | binds | no binding (tested: about 4e-6 M)

From patent US20240026022A1
